Results are given in words; binding and its absence hold for the method and conditions named. In cells and extracts the contact can be indirect. Some results given as binding are weak or reduced against the parent protein; the word gives no strength.
T1: NHLRC2 (NHL-repeat-containing protein 2) (human (endogenous in THP-1)) (UniProt Q8NBF2)
T1 sequence: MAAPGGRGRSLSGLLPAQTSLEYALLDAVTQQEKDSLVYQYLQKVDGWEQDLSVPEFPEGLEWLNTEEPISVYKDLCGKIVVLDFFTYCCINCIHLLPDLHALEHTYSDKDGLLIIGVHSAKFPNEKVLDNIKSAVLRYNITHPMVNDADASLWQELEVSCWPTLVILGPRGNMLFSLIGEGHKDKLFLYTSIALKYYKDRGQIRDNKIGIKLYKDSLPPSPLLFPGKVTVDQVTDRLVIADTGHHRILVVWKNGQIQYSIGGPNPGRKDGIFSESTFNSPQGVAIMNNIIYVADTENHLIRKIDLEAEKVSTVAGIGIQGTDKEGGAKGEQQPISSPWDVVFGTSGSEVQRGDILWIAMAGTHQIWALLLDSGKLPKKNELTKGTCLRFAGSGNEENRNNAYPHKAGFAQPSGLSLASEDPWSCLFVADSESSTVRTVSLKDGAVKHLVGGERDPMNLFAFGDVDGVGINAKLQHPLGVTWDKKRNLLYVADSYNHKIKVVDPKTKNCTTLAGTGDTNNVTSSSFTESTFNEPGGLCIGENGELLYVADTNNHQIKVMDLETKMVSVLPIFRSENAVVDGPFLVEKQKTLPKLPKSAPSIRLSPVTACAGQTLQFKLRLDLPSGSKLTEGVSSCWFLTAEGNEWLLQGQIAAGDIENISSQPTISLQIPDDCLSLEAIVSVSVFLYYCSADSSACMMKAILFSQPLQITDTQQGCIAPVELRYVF

The chains behind the UniProt entries cited, without tags or fusion partners.
UniProt P19525: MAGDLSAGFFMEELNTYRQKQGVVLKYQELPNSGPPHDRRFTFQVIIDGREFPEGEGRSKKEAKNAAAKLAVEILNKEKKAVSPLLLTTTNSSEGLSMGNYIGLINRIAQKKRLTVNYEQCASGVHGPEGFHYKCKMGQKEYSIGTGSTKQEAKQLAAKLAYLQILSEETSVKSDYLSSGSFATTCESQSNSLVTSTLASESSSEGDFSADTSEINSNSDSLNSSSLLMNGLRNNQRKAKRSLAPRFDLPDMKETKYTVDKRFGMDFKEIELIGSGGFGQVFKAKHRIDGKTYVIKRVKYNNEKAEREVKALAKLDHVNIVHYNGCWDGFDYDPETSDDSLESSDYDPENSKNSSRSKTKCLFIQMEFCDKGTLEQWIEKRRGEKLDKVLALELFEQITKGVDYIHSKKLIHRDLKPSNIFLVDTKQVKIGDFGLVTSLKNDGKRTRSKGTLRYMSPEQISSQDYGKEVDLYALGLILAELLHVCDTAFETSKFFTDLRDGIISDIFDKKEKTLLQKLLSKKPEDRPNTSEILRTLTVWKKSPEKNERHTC
UniProt O94915: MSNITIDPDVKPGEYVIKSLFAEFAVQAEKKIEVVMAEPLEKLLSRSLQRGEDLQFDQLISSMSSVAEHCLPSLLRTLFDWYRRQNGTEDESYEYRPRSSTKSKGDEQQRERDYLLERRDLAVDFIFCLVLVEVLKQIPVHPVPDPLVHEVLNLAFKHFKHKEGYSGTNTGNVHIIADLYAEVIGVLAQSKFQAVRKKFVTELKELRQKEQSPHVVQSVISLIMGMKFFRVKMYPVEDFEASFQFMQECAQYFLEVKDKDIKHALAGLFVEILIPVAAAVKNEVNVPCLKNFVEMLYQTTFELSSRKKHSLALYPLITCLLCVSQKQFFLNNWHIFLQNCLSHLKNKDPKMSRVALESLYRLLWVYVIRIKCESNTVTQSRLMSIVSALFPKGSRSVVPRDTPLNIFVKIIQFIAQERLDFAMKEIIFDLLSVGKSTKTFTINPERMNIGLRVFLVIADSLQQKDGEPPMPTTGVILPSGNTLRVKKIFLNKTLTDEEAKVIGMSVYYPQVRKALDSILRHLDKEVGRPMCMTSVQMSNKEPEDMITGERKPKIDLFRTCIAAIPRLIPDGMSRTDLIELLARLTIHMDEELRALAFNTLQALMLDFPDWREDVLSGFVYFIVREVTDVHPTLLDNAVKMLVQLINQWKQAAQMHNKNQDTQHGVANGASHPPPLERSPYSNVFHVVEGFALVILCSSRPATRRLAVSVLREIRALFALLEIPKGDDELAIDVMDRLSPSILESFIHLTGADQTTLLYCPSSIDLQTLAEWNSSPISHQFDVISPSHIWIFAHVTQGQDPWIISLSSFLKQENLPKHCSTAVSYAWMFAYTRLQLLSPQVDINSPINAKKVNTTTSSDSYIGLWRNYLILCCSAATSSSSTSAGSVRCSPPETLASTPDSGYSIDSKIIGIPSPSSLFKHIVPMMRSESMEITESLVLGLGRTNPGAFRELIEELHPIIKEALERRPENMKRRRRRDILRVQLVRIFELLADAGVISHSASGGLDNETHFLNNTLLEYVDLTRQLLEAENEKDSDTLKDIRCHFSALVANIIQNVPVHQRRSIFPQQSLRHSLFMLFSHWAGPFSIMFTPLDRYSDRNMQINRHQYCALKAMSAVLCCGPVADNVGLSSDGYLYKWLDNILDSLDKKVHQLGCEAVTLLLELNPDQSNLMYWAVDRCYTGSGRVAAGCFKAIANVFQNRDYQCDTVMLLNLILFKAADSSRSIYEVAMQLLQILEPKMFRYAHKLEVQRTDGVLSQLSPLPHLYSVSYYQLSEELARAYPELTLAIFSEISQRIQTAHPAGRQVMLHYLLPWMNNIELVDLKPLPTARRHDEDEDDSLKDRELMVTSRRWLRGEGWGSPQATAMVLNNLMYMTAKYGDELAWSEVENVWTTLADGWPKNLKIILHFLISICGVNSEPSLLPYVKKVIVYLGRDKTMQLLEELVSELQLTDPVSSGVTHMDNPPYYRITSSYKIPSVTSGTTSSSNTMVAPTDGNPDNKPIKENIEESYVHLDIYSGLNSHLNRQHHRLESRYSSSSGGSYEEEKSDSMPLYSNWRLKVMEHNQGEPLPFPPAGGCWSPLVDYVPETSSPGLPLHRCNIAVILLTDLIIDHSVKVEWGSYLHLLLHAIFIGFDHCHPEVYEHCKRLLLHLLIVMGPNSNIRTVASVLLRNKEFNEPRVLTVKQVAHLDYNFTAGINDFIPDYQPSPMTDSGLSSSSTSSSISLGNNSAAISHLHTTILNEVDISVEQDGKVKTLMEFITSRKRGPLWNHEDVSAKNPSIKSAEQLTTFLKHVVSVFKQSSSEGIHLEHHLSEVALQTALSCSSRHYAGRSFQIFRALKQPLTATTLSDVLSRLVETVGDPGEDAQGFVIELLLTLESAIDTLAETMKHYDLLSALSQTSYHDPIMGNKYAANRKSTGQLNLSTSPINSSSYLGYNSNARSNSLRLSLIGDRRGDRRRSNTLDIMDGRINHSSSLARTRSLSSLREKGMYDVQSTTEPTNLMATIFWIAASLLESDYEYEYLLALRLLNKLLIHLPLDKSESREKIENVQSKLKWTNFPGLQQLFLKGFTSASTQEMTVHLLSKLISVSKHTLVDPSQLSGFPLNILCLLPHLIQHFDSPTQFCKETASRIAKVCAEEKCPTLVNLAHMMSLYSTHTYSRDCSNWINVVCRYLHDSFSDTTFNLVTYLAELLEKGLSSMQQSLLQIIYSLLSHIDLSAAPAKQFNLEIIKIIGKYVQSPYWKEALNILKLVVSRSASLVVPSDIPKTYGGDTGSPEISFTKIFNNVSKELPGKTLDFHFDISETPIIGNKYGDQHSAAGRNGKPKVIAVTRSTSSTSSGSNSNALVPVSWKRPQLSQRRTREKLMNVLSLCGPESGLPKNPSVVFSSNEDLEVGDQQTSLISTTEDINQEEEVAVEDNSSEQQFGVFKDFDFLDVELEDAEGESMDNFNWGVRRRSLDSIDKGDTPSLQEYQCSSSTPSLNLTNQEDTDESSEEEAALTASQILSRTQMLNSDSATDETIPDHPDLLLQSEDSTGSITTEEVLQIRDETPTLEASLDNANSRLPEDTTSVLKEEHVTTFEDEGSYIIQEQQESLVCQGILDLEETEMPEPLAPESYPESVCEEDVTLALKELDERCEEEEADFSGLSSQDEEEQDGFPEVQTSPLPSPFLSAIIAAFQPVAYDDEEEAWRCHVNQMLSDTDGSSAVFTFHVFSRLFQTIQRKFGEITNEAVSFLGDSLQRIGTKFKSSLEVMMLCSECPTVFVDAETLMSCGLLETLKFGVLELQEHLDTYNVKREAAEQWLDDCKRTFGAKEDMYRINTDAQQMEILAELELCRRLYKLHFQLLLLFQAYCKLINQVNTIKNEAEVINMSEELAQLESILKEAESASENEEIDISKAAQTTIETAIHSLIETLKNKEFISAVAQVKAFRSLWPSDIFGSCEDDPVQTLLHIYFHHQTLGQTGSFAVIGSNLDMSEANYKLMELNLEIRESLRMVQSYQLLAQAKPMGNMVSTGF

B1: KLHL13 (Kelch like family member 13) (protein, UniProt Q9P2N7 1-655)
chain: MPLKWKTSSPAIWKFPVPVLKTSRSTPLSPAYISLVEEEDQHMKLSLGGSEMGLSSHLQSSKAGPTRIFTSNTHSSVVLQGFDQLRLEGLLCDVTLMPGDTDDAFPVHRVMMASASDYFKAMFTGGMKEQDLMCIKLHGVSKVGLRKIIDFIYTAKLSLNMDNLQDTLEAASFLQILPVLDFCKVFLISGVTLDNCVEVGRIANTYNLTEVDKYVNSFVLKNFPALLSTGEFLKLPFERLAFVLSSNSLKHCTELELFKATCRWLRLEEPRMDFAAKLMKNIRFPLMTPQELINYVQTVDFMRTDNTCVNLLLEASNYQMMPYMQPVMQSDRTAIRSDTTHLVTLGGVLRQQLVVSKELRMYDEKAHEWKSLAPMDAPRYQHGIAVIGNFLYVVGGQSNYDTKGKTAVDTVFRFDPRYNKWMQVASLNEKRTFFHLSALKGYLYAVGGRNAAGELPTVECYNPRTNEWTYVAKMSEPHYGHAGTVYGGVMYISGGITHDTFQKELMCFDPDTDKWIQKAPMTTVRGLHCMCTVGERLYVIGGNHFRGTSDYDDVLSCEYYSPILDQWTPIAAMLRGQSDVGVAVFENKIYVVGGYSWNNRCMVEIVQKYDPDKDEWHKVFDLPESLGGIRACTLTVFPPEETTPSPSRESPLSAP

Molecular target: T1, NHLRC2 (NHL-repeat-containing protein 2) (human (endogenous in THP-1))
Assay: co-IP; anti-NHLRC2 antibody (HPA038493) on nondenaturing THP-1 lysates, protein A magnetic beads, IgG antibody as control; partners detected by blot with their own antibodies and VeriBlot

binding, binds:
EIF2AK2 (eukaryotic translation initiation factor 2 alpha kinase 2) (from UniProt P19525 1-551), FRYL (FRY like transcription coactivator) (from UniProt O94915 1-3013), B1
